For at least one entry, the source does not settle the construct or the ends of the probe. Results from cells or extracts need not show a direct contact.
Biological target: HER3 on MCF7 cells (with endogenous HER2) (Homo sapiens) (UniProt P21860)
Assay: activity in cells
Settings: protein on the cell surface
[1] = inhibits HER2 phosphorylation, less than A30, 100 nM aptamer

Chains of the proteins cited; added tags and fusions are not shown. Residues count along the entry.
UniProt P21860, 20-1342 E560G/E1064G: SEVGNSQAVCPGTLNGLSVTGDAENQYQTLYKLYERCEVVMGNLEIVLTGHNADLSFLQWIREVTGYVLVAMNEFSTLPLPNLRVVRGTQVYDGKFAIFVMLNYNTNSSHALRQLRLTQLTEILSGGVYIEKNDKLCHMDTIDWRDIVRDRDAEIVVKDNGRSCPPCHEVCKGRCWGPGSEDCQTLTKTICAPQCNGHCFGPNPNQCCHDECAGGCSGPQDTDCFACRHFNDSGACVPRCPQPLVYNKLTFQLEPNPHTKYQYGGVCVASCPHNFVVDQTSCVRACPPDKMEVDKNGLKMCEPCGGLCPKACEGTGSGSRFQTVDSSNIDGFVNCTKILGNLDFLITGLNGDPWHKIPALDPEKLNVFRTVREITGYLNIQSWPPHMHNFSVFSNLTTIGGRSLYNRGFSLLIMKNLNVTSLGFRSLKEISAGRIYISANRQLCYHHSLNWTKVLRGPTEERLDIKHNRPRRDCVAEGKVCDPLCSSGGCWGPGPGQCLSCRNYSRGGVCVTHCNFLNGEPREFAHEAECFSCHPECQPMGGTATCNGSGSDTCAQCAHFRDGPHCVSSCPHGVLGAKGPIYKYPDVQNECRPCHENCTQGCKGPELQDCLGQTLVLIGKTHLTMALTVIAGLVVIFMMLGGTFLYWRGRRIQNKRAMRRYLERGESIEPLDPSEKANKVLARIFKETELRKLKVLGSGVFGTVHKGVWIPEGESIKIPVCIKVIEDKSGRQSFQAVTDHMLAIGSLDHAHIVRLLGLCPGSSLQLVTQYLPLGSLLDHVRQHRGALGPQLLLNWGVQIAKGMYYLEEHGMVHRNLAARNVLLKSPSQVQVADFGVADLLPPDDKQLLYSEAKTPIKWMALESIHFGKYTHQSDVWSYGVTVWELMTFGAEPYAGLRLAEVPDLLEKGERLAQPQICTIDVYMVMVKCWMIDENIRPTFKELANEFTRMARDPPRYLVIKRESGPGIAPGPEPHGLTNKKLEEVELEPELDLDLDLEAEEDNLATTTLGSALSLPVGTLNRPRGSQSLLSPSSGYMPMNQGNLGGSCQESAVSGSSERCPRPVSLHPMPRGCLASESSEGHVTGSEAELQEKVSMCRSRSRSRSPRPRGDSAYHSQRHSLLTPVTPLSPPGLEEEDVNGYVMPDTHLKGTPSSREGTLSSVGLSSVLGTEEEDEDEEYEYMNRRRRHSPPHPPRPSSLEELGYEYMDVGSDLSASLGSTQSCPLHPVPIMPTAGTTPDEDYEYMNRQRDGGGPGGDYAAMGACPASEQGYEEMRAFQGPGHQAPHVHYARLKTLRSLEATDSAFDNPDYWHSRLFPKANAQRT

For “GGGAAUUCCGCGUGUGCAGAACAAUCGCAUAGGCCGCAAGGUUAGUUUCGUUGUCCGCCCGGUGCAGUCCGUUCGGGAUCCUC [A6]”, the “functional effect of the aptamer” value (enhances low-affinity heregulin activation at 100 nM aptamer) was “active”.
“GGGAAUUCCGCGUGUGCGAGGGGCGAGGACGCCGAGUAUAGCCCCUAGAGGUGGAUGUUUCACGGUGUCCGUUCGGGAUCCUC [A23]” was tested, and the “functional effect of the aptamer” value [1] was “active”.
Sequence “GGGAAUUCCGCGUGUGCCAGCGAAAGUUGCGUAUGGGUCACAUCGCAGGCACAUGUCAUCUGGGCGGUCCGUUCGGGAUCCUC [A30]” has an IC50 (inhibition of heregulin-induced HER2 tyrosine phosphorylation in MCF7, EGF-induced activation not inhibited) of 10 nM.
With “GGGAAUUCCGCGUGUGCUUGAGAGGUCGUGCCAACUCUCAAGGUUGUCUUUGCUCUCCGCUCUGUGGUCCGUUCGGGAUCCUC [A37]” the “functional effect of the aptamer” value [1] was “active”.
